Data: US10195044B2, “Intervertebral disc implant” (Sinai Health System, priority 2013, dated 2019)
At least one compound was matched to its structure with a doubt left.

Tested on: sheep PDCs
Experiment: ALP activity of predifferentiated chondrocytes cultured on CPP substrates
Settings: absence of dexamethasone

`CC1=C(/C=C/C(C)=C/C=C/C(C)=C/C(=O)O)C(C)(C)CCC1` [RA, retinoic acid] was tested, and the ALP activity (100 μM RA, 1 week on CPP) was “increased” and the “formation of cartilaginous tissues on CPP” value (RA, prolonged culture) was “did not yield cartilaginous tissues”.
